The target in this assay is α1-AG (α1-acid glycoprotein). Kind of assay: Binding constant of basic drug to α1-AG by displacement of compound 1 (fluorescence probe method, Klotz formula). Conditions: 0.1M phosphoric acid buffer pH 7.4; 3×10^-6 M α1-AG; compound 1 as probe. How it is done: Two different kinds of solutions, one containing α1 -AG and a compound of this invention listed above, the other containing α1 -AG, the compound of this invention, and a drug, are prepared to measure fluorescence intensity at the excitation. fluorescence wavelength, as shown in Table 2. According to the working curve made beforehand, the binding rate of the compound to α1 -AG in each solution is determined and the binding constant of a drug to α1-AG is calculated from the difference between the binding rates in the presence and the absence of a drug.
In the fluorescence cell made of quartz with a plug was placed the buffer solution of 0.1M phosphoric acid (2 ml) which pH is 7.4 and containig 1×10^-4 M α1 -AG, to which 5×10^-4 M aqueous solution of the compound 1 was added by 2 μl each with a microcylinder, which was prepared by dissolving about 3 mg of the compound 1 in 1N hydrochloric acid (1 ml), followed by diluting with water to make the total volume 200 times, and the resulting solution was mixed fully to determine fluorescence intensity at 508 nm (excitation wavelength: 418 nm).
For the buffer solution of 0.1M phosphoric acid (2 ml) which pH is 7.4 and containing 3×10^-6 M α1 -AG, the same procedure as in Example 1 was performed.
As for the other basic drugs shown in Table 3, binding constant were obtained according to the same manner as in Example 11.

SMILES strings stand for the structures.

For `CCN(CC)CC(=O)Nc1c(C)cccc1C` [Lidocaine], the “log Kb (binding constant)” value came to 5.12.
